These are yes or no findings as the source states them, for the method shown. For some of these results: In cells and extracts the contact can be indirect. Some binding calls cover weakened binding; strength is not graded here. For some of these results: Tags and fused reporters may be left off the sequences shown.
Legend:
[1] = target: T1, embigin (mouse, endogenous in sebaceous gland cells) (mouse (endogenous in tail skin)) (UniProt P21995); assay: proximity ligation; Duolink PLA on 12 μm cryosections of mouse tail skin fixed in 4% PFA; PLUS and MINUS probes cross-linked directly to the EMB (G7.43.1) and MCT1 (AB1286-1) antibodies
T1 sequence: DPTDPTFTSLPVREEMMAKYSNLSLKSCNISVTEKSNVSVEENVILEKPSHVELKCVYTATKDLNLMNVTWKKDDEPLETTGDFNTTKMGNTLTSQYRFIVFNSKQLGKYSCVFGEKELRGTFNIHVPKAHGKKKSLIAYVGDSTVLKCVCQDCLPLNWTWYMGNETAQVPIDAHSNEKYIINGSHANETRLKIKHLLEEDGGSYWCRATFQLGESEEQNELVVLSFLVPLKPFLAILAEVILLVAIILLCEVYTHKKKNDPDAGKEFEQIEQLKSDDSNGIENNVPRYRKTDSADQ

By UniProt entry, the sequences of proteins in these tests, tags left out. Where a name states a change or a piece, a line headed by the entry shows the natural chain unless it says otherwise. Residues count along the entry.
UniProt P02462: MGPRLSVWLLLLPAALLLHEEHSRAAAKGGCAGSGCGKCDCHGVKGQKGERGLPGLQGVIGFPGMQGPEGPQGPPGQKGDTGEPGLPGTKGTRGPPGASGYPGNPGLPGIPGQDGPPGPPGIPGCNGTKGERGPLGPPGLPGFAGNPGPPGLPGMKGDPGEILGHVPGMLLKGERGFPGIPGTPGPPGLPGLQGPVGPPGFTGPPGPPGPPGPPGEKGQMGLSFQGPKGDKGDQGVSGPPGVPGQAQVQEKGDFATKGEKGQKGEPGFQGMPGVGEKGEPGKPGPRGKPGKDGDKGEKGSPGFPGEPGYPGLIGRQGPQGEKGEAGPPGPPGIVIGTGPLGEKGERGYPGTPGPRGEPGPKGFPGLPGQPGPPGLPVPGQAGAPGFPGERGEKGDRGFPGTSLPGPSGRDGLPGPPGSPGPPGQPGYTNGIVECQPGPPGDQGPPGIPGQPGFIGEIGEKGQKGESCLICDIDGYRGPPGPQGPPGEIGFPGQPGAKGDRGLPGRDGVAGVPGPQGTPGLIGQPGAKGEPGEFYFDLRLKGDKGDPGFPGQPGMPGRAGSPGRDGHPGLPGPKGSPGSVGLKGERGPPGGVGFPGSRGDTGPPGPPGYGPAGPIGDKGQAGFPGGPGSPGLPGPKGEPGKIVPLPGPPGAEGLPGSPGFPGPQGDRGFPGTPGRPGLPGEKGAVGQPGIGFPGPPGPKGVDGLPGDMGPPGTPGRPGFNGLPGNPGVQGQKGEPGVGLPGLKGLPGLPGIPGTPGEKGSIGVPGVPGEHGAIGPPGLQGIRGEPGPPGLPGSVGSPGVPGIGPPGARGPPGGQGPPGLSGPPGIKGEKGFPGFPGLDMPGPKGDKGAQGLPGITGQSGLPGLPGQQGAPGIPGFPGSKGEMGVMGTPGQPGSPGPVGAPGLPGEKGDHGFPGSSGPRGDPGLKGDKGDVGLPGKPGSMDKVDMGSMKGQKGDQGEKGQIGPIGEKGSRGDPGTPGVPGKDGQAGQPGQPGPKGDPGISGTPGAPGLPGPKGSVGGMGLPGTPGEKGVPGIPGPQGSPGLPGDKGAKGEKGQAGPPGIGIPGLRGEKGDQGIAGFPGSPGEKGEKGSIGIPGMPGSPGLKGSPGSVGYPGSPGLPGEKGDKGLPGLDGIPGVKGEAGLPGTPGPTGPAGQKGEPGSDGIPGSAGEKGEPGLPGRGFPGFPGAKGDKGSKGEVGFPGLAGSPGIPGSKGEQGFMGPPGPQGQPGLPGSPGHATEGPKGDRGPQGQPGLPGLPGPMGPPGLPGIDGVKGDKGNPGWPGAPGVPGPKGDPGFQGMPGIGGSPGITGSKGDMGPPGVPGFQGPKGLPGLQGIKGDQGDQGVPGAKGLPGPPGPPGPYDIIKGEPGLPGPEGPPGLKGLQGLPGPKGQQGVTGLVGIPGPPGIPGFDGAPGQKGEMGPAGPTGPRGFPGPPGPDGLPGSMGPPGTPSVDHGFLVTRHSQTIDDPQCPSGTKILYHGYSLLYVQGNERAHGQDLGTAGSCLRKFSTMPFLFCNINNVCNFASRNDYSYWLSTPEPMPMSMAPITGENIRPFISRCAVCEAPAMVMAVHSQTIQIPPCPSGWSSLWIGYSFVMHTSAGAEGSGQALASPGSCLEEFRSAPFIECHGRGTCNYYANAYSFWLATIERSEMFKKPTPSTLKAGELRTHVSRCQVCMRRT
UniProt P19137: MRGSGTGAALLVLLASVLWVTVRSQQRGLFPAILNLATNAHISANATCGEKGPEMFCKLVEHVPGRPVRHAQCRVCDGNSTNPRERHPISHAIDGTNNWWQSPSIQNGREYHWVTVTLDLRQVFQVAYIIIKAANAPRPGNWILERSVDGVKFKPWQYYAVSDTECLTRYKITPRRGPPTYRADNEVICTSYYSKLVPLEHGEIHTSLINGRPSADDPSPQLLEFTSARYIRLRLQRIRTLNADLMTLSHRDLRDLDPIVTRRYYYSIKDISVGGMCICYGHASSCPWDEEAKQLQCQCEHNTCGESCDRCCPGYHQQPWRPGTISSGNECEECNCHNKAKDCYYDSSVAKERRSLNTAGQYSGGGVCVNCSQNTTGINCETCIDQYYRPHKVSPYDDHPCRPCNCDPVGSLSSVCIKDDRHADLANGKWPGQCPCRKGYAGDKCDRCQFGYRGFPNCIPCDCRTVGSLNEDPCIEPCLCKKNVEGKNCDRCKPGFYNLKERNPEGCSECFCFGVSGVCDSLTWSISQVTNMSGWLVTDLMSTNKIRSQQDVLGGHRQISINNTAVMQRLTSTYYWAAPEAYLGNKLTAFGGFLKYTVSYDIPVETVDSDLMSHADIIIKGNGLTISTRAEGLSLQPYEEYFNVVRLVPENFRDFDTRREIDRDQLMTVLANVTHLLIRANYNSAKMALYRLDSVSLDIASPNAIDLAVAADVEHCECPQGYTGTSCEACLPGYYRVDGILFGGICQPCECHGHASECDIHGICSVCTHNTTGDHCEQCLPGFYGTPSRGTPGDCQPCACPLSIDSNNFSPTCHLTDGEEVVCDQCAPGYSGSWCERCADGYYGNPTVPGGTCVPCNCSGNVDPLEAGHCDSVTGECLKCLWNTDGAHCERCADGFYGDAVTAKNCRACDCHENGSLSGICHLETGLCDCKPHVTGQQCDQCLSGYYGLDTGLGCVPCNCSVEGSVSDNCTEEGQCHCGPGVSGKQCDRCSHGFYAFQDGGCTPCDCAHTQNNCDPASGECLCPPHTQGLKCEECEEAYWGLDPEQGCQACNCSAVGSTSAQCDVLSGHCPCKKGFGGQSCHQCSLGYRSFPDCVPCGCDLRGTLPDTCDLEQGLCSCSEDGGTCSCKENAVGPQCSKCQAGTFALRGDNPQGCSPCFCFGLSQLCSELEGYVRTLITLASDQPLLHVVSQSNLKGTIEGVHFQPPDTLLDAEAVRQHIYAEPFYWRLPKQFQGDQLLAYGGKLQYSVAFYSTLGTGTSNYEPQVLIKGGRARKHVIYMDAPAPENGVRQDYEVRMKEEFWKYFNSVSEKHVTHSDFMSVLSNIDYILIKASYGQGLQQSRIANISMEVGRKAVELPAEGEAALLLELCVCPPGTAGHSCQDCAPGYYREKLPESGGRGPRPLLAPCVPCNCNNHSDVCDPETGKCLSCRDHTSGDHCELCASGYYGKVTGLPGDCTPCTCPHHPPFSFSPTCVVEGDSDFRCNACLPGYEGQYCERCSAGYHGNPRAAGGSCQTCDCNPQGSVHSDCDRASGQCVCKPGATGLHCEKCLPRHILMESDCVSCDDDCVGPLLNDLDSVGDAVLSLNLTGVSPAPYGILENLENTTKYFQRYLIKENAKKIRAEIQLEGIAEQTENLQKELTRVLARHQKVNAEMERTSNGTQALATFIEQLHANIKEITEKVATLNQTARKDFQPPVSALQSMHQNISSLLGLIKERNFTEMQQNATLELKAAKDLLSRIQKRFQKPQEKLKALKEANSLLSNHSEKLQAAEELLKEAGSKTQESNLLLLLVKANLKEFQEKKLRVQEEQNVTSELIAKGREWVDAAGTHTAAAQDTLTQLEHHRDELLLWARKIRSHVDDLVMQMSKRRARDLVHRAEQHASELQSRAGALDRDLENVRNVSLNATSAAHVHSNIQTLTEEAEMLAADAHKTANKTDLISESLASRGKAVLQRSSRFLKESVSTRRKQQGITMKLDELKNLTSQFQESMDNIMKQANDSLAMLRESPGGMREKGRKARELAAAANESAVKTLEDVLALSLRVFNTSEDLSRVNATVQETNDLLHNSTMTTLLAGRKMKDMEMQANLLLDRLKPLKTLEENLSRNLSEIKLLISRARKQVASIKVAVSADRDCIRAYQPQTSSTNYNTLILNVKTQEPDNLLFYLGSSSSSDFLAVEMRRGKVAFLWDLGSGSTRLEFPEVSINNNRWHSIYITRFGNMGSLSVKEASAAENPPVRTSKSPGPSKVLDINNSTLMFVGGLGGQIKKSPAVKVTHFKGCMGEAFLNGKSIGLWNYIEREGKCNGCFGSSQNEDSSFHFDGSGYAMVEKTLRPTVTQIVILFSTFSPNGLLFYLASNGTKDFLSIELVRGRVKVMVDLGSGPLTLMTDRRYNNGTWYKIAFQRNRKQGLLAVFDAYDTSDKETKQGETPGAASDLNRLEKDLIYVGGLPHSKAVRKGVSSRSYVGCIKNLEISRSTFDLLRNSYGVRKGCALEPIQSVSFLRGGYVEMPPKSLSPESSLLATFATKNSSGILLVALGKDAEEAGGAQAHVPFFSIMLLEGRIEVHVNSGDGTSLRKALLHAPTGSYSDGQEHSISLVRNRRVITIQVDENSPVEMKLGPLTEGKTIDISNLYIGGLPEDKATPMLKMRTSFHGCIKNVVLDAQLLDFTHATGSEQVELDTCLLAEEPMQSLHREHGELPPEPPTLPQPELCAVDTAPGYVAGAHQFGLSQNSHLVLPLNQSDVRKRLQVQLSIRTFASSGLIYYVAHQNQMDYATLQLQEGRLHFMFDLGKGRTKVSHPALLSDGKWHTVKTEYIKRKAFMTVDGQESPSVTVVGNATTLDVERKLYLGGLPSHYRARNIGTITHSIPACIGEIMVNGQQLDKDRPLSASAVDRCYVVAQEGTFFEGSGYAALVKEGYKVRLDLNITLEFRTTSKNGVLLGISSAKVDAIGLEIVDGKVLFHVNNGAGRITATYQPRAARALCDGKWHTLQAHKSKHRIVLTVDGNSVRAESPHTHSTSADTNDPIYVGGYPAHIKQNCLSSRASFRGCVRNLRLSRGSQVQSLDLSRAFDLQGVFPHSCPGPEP
UniProt P04004, residues 20-478: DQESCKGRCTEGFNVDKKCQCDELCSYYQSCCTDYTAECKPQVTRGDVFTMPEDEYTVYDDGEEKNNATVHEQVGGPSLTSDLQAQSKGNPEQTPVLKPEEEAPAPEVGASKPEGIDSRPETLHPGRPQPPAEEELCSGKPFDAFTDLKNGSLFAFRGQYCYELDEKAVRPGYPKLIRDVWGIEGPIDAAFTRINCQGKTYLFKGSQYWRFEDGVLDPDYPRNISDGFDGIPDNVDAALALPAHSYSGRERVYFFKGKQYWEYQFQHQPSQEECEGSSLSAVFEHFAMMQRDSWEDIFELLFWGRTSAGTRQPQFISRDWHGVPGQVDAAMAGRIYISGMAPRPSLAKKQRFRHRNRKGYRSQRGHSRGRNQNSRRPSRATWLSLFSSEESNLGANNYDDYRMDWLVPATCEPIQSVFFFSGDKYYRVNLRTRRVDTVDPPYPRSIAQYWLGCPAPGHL

collagen IV = collagen IV (UniProt P02462); assay: solid-phase binding assay (DELFIA); ligand coated on the plate (5 μg/cm^2, overnight at +4°C), blocked with Delfia Diluent; soluble GST-tagged receptor in Delfia Assay Buffer ± 2mM MgCl2 or MnCl2 or 5mM EDTA, 1h at RT; detected with Europium-labeled anti-GST antibody; both purified
laminin 1 = laminin 1 (UniProt P19137); assay: as above
vitronectin = vitronectin (UniProt P04004); assay: as above

Binder | binding [1] | binding (collagen IV) | binding (laminin 1) | binding (vitronectin)
monocarboxylate transporter 1 (MCT1; mouse, endogenous in sebaceous gland cells) (protein, UniProt P53986 1-493) MPPAIGGPVGYTPPDGGWGWAVLVGAFISIGFSYAFPKSITVFFKEIEVIFSATTSEVSWISSIMLAVMYAGGPISSILVNKYGSRPVMIAGGCLSGCGLIAASFCNTVQELYLCIGVIGGLGLAFNLNPALTMIGKYFYKKRPLANGLAMAGSPVFLSTLAPLNQAFFDIFDWRGSFLILGGLLLNCCVAGSLMRPIGPEQVKLEKLKSKESLQEAGKSDANTDLIGGSPKGEKLSVFQTINKFLDLSLFTHRGFLLYLSGNVVMFFGLFTPLVFLSSYGKSKDFSSEKSAFLLSILAFVDMVARPSMGLAANTKWIRPRIQYFFAASVVANGVCHLLAPLSTTYVGFCVYAGVFGFAFGWLSSVLFETLMDLIGPQRFSSAVGLVTIVECCPVLLGPPLLGRLNDMYGDYKYTYWACGVILIIAGIYLFIGMGINYRLLAKEQKAEEKQKREGKEDEASTDVDEKPKETMKAAQSPQQHSSGDPTEEESPV | binds | – | – | –
recombinant embigin extracellular domain GST-fusion protein (EMB-GST) (domain or fragment) DGSAPDSPFTSPPLREEIMANNFSLESHNISLTEHSSMPVEKNITLERPSNVNLTCQFTTSGDLNAVNVTWKKDGEQLENNYLVSATGSTLYTQYRFTIINSKQMGSYSCFFREEKEQRGTFNFKVPELHGKNKPLISYVGDSTVLTCKCQNCFPLNWTWYSSNGSVKVPVGVQMNKYVINGTYANETKLKITQLLEEDGESYWCRALFQLGESEEHIELVVLSYLVP | – | no binding (tested: 200 nM) | no binding (tested: 200 nM) | no binding (tested: 200 nM)
